Results are given in words; binding and its absence hold for the method and conditions named. In cells and extracts the contact can be indirect. Some entries that bind do so weakly or less than the wild type.
Molecular target: T1, 14-3-3γ (YWHAG) (UniProt P61981)
T1 sequence: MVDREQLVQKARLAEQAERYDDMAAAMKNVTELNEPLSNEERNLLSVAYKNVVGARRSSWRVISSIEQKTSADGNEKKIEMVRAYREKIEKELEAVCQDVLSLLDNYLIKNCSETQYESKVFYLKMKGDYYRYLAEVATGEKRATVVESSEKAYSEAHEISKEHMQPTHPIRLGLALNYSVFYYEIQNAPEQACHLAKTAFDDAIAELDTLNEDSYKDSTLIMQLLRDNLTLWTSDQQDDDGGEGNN
Experiment: co-IP; Co-IP of YWHAG with p-HSPB6 and p-Cofilin, with or without overexpression of HSPB6; no Co-IP method described (cell line, precipitating antibody and buffer not told)

binding: binds
B1: phosphorylated Heat shock protein family B [small] member 6 (p-HSPB6) (protein, UniProt O14558 1-160)
chain: MEIPVPVQPSWLRRASAPLPGLSAPGRLFDQRFGEGLLEAELAALCPTTLAPYYLRAPSVALPVAQVPTDPGHFSVLLDVKHFSPEEIAVKVVGEHVEVHARHEERPDEHGFVAREFHRRYRLPPGVDPAAVTSALSPEGVLSIQAAPASAQAPPPAAAK
modifications: phosphorylated (p-HSPB6); site not given

— PMC10876707
